Data from patent US20110305637A1, “RADIOLABELLED PDE10 LIGANDS” (Janssen Pharmaceutica N.V., priority 2009, published 2011).
Some of these results come from one statement about several compounds together.

Tested on: other PDEs
Assay: selectivity over other PDEs
Format: biochemical

**Q.** For `FCCCn1cc(-c2ccncc2)c(-c2ccc(OCc3ccc4ccccc4n3)cc2)n1` [Ib, 2-{4-[1-(3-Fluoropropyl)-4-pyridin-4-yl-1H-1-pyrazol-3-yl]-phenoxymethyl}-quinoline], which “selective over other PDEs” value is on record?
**A.** Its value is greater than 1000 fold.
